We go through three molecules from patent publication US20150231203A1 (UTI LIMITED PARTNERSHIP, published 2015).

Amino acid sequences for entries named in this document (tags omitted).
UniProt O88427: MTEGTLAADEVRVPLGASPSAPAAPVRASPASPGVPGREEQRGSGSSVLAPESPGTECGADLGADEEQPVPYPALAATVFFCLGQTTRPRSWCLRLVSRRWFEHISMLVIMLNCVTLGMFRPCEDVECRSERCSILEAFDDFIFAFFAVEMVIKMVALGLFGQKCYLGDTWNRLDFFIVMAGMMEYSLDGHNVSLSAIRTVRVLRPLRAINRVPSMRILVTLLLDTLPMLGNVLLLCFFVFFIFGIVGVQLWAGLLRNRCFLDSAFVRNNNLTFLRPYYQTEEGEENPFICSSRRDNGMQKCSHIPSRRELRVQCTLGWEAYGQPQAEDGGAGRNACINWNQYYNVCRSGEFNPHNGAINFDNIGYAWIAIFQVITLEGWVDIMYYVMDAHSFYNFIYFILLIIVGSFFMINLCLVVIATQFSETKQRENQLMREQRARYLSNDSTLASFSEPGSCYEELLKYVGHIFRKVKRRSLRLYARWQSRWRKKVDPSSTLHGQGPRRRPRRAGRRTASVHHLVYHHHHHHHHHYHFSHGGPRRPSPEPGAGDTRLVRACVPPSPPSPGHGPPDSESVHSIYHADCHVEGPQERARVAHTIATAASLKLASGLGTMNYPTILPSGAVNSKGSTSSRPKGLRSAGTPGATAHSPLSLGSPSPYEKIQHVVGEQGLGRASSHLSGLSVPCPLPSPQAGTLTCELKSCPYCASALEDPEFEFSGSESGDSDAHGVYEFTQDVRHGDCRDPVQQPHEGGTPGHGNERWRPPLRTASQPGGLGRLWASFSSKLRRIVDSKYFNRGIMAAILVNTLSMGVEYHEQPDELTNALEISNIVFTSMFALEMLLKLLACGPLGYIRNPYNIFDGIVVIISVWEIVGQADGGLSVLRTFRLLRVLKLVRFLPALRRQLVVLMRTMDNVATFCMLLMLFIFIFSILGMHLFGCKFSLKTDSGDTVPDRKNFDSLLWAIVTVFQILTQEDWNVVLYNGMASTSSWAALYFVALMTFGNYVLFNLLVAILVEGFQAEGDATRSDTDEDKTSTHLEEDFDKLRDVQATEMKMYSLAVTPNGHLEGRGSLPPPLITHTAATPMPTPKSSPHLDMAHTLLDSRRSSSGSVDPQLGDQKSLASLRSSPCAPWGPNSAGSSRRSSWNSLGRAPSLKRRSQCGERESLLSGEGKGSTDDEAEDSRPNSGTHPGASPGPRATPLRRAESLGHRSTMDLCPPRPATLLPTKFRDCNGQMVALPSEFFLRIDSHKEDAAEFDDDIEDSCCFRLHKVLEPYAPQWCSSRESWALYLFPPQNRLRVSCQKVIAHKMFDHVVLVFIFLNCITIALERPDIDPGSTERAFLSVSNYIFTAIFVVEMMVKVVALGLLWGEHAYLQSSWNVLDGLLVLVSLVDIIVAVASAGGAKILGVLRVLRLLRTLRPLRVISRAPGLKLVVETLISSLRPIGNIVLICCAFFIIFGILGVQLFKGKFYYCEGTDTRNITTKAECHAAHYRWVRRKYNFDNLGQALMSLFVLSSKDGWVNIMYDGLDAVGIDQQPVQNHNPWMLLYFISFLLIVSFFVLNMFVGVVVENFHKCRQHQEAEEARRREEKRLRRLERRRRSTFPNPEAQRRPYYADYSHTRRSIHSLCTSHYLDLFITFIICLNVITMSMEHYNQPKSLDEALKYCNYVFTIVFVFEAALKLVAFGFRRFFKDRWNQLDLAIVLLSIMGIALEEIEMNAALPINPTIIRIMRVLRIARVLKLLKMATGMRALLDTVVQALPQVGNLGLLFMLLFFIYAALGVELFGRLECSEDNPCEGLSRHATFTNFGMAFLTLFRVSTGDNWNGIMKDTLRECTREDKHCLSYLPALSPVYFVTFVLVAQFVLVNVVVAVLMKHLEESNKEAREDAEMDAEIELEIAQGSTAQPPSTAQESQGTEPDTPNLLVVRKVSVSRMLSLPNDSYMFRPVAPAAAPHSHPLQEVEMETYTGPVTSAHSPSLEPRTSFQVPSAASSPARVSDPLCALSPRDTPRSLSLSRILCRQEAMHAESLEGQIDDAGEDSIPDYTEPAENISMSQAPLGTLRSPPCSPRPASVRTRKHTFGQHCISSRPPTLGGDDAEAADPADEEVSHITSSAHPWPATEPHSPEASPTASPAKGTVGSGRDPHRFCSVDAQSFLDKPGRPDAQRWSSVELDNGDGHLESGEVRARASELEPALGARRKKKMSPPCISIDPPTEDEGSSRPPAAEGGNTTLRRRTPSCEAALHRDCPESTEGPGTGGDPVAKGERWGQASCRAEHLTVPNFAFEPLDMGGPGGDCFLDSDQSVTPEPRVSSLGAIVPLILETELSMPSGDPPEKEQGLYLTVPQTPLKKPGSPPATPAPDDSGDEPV

The target in experiment [1] is USP5 (mouse, endogenous, from brain, DRG or dorsal horn lysate) (mouse) (UniProt P56399). The experiment can be described thus: co-immunoprecipitation from mouse DRG, western blot for USP5.
Experiment [2] has as its target Cav3.2 channel (mouse, endogenous full-length channel from DRG, brain or dorsal horn) (mouse) (UniProt O88427). The experiment can be described thus: co-immunoprecipitation: Cav3.2 immunoprecipitates from mouse DRG lysate probed for WWP1.
Experiment [3] has the same target. In words: summary of affinity precipitation and co-immunoprecipitation.
Experiment [4] shares this target. The experiment can be described thus: co-immunoprecipitation from mouse dorsal horn lysate.
Experiment [5] shares this target. In words: summary of the co-immunoprecipitation from mouse tissue.
The target is the same in experiment [6]. The experiment can be described thus: co-immunoprecipitation from L4-L6 dorsal horn tissue after chronic constriction injury.

Results are given in words; binding and its absence hold for the method and conditions named. Binding seen in cells or lysates may run through a third protein. Some entries that bind do so weakly or less than the wild type.

As to “Cav3.2 channel (mouse, endogenous full-length channel from DRG, brain or dorsal horn) (from UniProt O88427 1-2365)”, in experiment [1], the binding result is on record as “binds”.
On to “WWP1 (mouse, endogenous, from DRG lysate) (from UniProt Q8BZZ3 1-918) (enzyme)”, for which the binding entry in experiment [2] and in experiment [3] was “binds” in each case.

B1: USP5 (mouse, endogenous, from brain, DRG or dorsal horn lysate) (enzyme, UniProt P56399 2-858, looked up)
chain: AELSEEALLSVLPTIRVPKAGDRVHKDECAFSFDTPESEGGLYICMNTFLGFGKQYVERHFNKTGQRVYLHLRRTRRPKEEDTSAGTGDPPRKKPTRLAIGVEGGFDLTEDKFEFDEDVKIVILPDYLEIARDGLGGLPDIVRDRVTSAVEALLSADSASRKQEVQAWDGEVRQVSKHAFNLKQLDNPARIPPCGWKCSKCDMRENLWLNLTDGSILCGRRYFDGSGGNNHAVEHYRETGYPLAVKLGTITPDGADVYSYDEDDMVLDPSLAEHLSHFGIDMLKMQKTDKTMTELEIDMNQRIGEWELIQESGVPLKPLFGPGYTGIRNLGNSCYLNSVVQVLFSIPDFQRKYVDKLEKIFQNAPTDPTQDFSTQVAKLGHGLLSGEYSKPALESGDGEQVPEQKEVQDGIAPRMFKALIGKGHPEFSTNRQQDAQEFFLHLINMVERNCRSSENPNEVFRFLVEEKIKCLATEKVKYTQRVDYIMQLPVPMDAALNKEELLEYEEKKRQAEEEKVPLPELVRAQVPFSSCLEAYGAPEQVDDFWSTALQAKSVAVKTTRFASFPDYLVIQIKKFTFGLDWVPKKLDVSIEMPEELDISQLRGTGLQPGEEELPDIAPPLVTPDEPKGSLGFYGNEDEDSFCSPHFSSPTSPMLDESVIIQLVEMGFPMDACRKAVYYTGNSGAEAAMNWVMSHMDDPDFANPLILPGSSGPGSTSAAADPPPEDCVTTIVSMGFSRDQALKALRATNNSLERAVDWIFSHIDDLDAEAAMDISEGRSAAESISESVPVGPKVRDGPGKYQLFAFISHMGTSTMCGHYVCHIKKEGRWVIYNDQKVCASEKPPKDLGYIYFYQRVVS
Take B1: the binding entry in experiment [4], in experiment [5] and in experiment [6] was “binds” each time.
